PubChem BioAssay AID743456, Peter MacCallum Cancer Centre, 2014
In all, the deposit lists 878 reagents; shown is a random part of them. 27 of all reagents (3.1%) count as active. 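27 mimics are marked active, unlike an earlier stated count of 24; the viability threshold is described inconsistently.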 Entries without a mark were called inactive. Further read-outs or replicates are left out here. Not given: the amount of reagent.

Screen: 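miRNA mimics altering how resistant colon cancer cells respond to vorinostat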 (primary screen)
Cell system: human HCT116-VR colon cancer cells, a vorinostat-resistant HCT116 line
Reagent: miRNA mimic
Time to read-out: about 3 days from transfection to readout; drug present for the last 24 h
Challenge: vorinostat at 2.5 µM final for 24 h
Measurement: 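Per-well live-cell protease fluorescence and caspase luminescence under 2.5 µM vorinostat for 24 h, scored as robust z-scores and against mock transfection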
Direction: viability robust z-score: higher = more viable cells; caspase robust z-score: higher = more caspase activity, more apoptosis
Call rule: 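a mimic counts as active if it lands in a lowered-viability class or a caspase-activation class; wells with too few cells without drug are left out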

miRNA | viability robust z-score | caspase robust z-score | viability hit class | caspase hit class
hsa-miR-545* | 1.14 | -0.61 | no change | no change
hsa-miR-208b | -0.05 | 2.4 | no change | no change
hsa-miR-378* | -0.82 | -0.57 | no change | no change
hsa-miR-125a-3p | 0.81 | 4.32 | no change | no change
hsa-miR-1537 | 1.31 | -0.82 | no change | no change
hsa-miR-1201 | -0.16 | 0.12 | no change | no change
hsa-miR-885-5p | -0.06 | -0.3 | no change | no change
hsa-miR-181c* | -1.21 | -0.64 | no change | no change
hsa-miR-569 | -1.23 | 0.28 | no change | no change
hsa-miR-1274b | 0.62 | -0.22 | no change | no change
hsa-miR-220a | -0.14 | 0.34 | no change | no change
hsa-miR-567 | -1.18 | -1.12 | no change | no change
hsa-miR-28-3p | -0.86 | 1.31 | no change | no change
hsa-miR-1298 | -0.49 | 1.16 | no change | no change
hsa-let-7a | 0.94 | 0.7 | no change | no change
hsa-miR-19b-2* | -0.72 | 0.32 | no change | no change
hsa-miR-18b | 0.16 | 2.49 | no change | no change
hsa-miR-517b | 0.56 | 1.43 | no change | no change
hsa-miR-509-3p | -0.06 | 1.1 | no change | no change
hsa-miR-196a* | 0.82 | 2.4 | no change | no change
hsa-miR-371-5p | 0.82 | 0.98 | no change | no change
hsa-miR-548d-3p | 1.36 | -0.66 | no change | no change
hsa-miR-15a | -2.48 | 2.31 | no change | no change
hsa-miR-29a | -0.4 | -0.86 | no change | no change
hsa-miR-943 | 0.43 | -0.3 | no change | no change
hsa-miR-33a* | 0.85 | -0.64 | no change | no change
hsa-miR-324-5p | -1.44 | 3.04 | no change | no change
hsa-miR-583 | 0.91 | -0.44 | no change | no change
hsa-miR-520d-3p | 0.18 | 1.39 | no change | no change
hsa-miR-548f | 1.24 | 0.1 | no change | no change
hsa-miR-140-3p | 0.02 | -0.64 | no change | no change
hsa-miR-219-1-3p | -1.38 | 1.92 | no change | no change
hsa-miR-1276 | -0.12 | -0.15 | no change | no change

6 entries already listed, arranged by “caspase robust z-score”, highest first.
miRNA | viability robust z-score | caspase robust z-score | viability hit class | caspase hit class
hsa-miR-18b | 0.16 | 2.49 | no change | no change
hsa-miR-196a* | 0.82 | 2.4 | no change | no change
hsa-miR-517b | 0.56 | 1.43 | no change | no change
hsa-miR-509-3p | -0.06 | 1.1 | no change | no change
hsa-miR-371-5p | 0.82 | 0.98 | no change | no change
hsa-miR-19b-2* | -0.72 | 0.32 | no change | no change

Additional entries follow.
miRNA | viability robust z-score | caspase robust z-score | viability hit class | caspase hit class
hsa-miR-154* | 0.84 | -0.82 | no change | no change
hsa-miR-660 | 0.81 | -0.84 | no change | no change
hsa-miR-506 | -1.48 | -0.3 | no change | no change
hsa-miR-34a | -1.62 | 2.44 | no change | no change
hsa-miR-485-5p | -0.6 | 3.63 | no change | no change
hsa-miR-519a | -0.05 | 2.04 | no change | no change
hsa-miR-760 | -0.32 | -0.46 | no change | no change
hsa-miR-631 | -3.24 (active) | 2 | reduced viability | no change
hsa-miR-1246 | 0.2 | 1.27 | no change | no change
hsa-miR-10b | -0.41 | -0.78 | no change | no change
hsa-miR-9 | 0.3 | -0.42 | no change | no change
hsa-miR-643 | 0.64 | -0.77 | no change | no change
hsa-miR-1910 | 1.13 | 0.37 | no change | no change
hsa-miR-1182 | 0.23 | -0.71 | no change | no change
hsa-miR-580 | 0.34 | -0.94 | no change | no change
hsa-miR-485-3p | 0.15 | -0.05 | no change | no change
hsa-miR-141 | 0.55 | -0.82 | no change | no change
